Measurements from “University of Dundee, Small-Polar-MMV Screening Library” (2021), ChEMBL document CHEMBL3988442.

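Viability assay of Plasmodium falciparum sporozoites; the read-out is not stated. The concentration is filed as 10 mM, unlikely as a test dose, so the dose is not known. Higher reads as lower viability (inferred: compounds with an IC50 in retests scored well above the rest). Strong results were mostly tested again. Of about 34,000 compounds tested this way, about 280 (0.84%) reached 50% or more in at least one test.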

Results are given as percent effect.
How 0% and 100% were set is not recorded. Most values in the screen are low, and negative values occur.
This is an unselected part of the compounds tested.
Two or more numbers in one place are separate tests of the same structure; such repeats can differ widely.

Result for Cc1ccnn1CCC(=O)N1CCCC2(C1)NC(=O)c1ccccc1O2 (stereo not shown) was -11.06%.
Result for O=C(CCN1CCCN(c2nccs2)CC1)Nc1ccccc1 was -13.73%.
Result for Cc1ncsc1C(=O)N(C)Cc1ccsc1 was 13.21%.
Result for CCCNS(=O)(=O)c1cc2c3c(c1)c(C)cc(=O)n3CCC2 was 13.35%.
Result for Cc1cnn(CC2CN(Cc3nc4ccccc4o3)CCO2)c1 (stereo not shown) was -0.5102%.
Result for CC(C)c1ncc2c(n1)CN(Cc1cccc3c1OCCO3)CC2 was -6.024%.
Result for COCCn1ccnc1CN1CCc2[nH]cnc2C1c1ccccn1 (stereo not shown) was 14.01%.
Result for CNC(=O)c1ccnc(CC2COc3c(cccc3OC)C2)c1 (stereo not shown) was 7.051% and 31.51% and 13.91%.
Result for CCn1ccnc1CN1CCCN(C(=O)Cc2ccc(C)s2)CC1 was -5.874%.
Result for [H][C@@]12CCCN1C[C@H](Cc1ccccc1)N(Cc1cnn(CCC)c1C)C2 was 4.797%.
Result for COCCCNCc1cc(O)c2cc(C)cc(C)c2n1 was 6.59% and 4.691%.
Result for CCS(=O)(=O)CCN1CCCC1c1noc(C2CC2)n1 (stereo not shown) was 11.27%.
Result for CC(=O)N1CCOC(c2cncc(CCC(=O)N(C)C)n2)C1 (stereo not shown) was 2.238%.
Result for OCCN1CCN(CC(O)c2ccc(OC(F)(F)F)cc2)CC1 (stereo not shown) was 5.409%.
Result for COCc1ccc(C(=O)N2CCOCC2c2ccc(C)o2)cc1 (stereo not shown) was -6.618%.
Result for NC(=O)c1cccc(CC2CCN(C(=O)CCCN3CCOCC3)C2)c1 (stereo not shown) was -7.91%.
Result for CCOc1cc(C)ccc1NC(=O)N(C)Cc1cnn(C)c1 was 1.76%.
Result for CC(C)N1CCCC1c1nc(N(C)C)ncc1I (stereo not shown) was -2.671%.
Result for CCN1CCCc2cc(CN3CCc4c(nc(C)[nH]c4=O)C3)ccc21 was 3.234%.
Result for Cc1nn(Cc2ccccc2)c(C)c1CNC1CCc2ncnn2C1 (stereo not shown) was 6.617%.
Result for O=C(C1CCCO1)N1CCC2(CC1)COCCN(Cc1cccnc1)C2.O=C(O)C(F)(F)F.O=C(O)C(F)(F)F (stereo not shown) was 2.35%.
Result for CC(CN(C)C)Nc1nc(O)cc(Cc2ccccc2F)n1 (stereo not shown) was 8.941%.
Result for Cc1nc(C2CCCN2Cc2nc(C)c(C)o2)no1 (stereo not shown) was -2.59%.
Result for Cc1ccccc1-c1cc(C(=O)N2CCCC(n3ccnc3C)C2)[nH]n1 (stereo not shown) was 4.568%.
Result for O=C(c1cnco1)N1CCC(Cc2cnc3ccccc3c2)CC1 was -6.16%.
Result for COc1c(C2CCCN2C(=O)c2ccc(N(C)C)nn2)c(C)nn1C (stereo not shown) was -6.837%.
Result for CCc1cnc(CN(C)C2CCN(CCc3cccs3)C2)o1 (stereo not shown) was 1.874%.
Result for Cc1cc(C(=O)N[C@H]2CC[C@@]3(CCC(=O)N3CC3CC3)CC2)no1 was 10.44%.
Result for N#Cc1ccc(CNC(=O)NC2CCCN(c3ncccn3)C2)cc1 (stereo not shown) was -2.662%.
Result for CC(C)C[C@H](N)COc1cccc(F)c1Oc1cccc(Cl)c1 was 0.9974%.
Result for CCc1nc(C2CCCN2CCCSC)no1 (stereo not shown) was -6.058%.
Result for Cc1cnc(N2CCOC(C(=O)NCc3ccccc3)C2)s1 (stereo not shown) was -9.866%.
Result for Cc1ccc(-n2nnc(C(=O)O)c2C)c(C)c1 was 1.557%.
Result for O=S(=O)(c1ccccc1)N1CCOC(Cn2ccnc2)C1 (stereo not shown) was 0.4826%.
Result for COC1CCN(C(=O)NCC(N)=O)CC(=O)N(C)c2ccccc21 (stereo not shown) was -37.6%.
Result for Cc1ccc(C2COCCN2C(=O)c2ccc(N(C)C)cc2)o1 (stereo not shown) was 3.863%.
Result for Cc1cc(F)cc(S(=O)(=O)NCCCN2CCC(O)CC2)c1 was -6.761%.
Result for Cc1cc(C[S+]([O-])CC(=O)NCc2cccc(Cl)c2)no1 (stereo not shown) was -235.5%.
Result for CCC1CN(Cc2cccc(C(=O)N(C)C)c2)CCN1CCOC (stereo not shown) was 6.835%.
Result for CC(=O)N1CCCC(c2ccnc(Nc3cnccn3)c2)C1 (stereo not shown) was -4.433%.
Result for CN(Cc1nnc2n1CCC2)C(=O)c1ccc2c(c1)OCO2 was 9.272%.
Result for COc1cccc(OCCNC(=O)CN2CCN(C)CC2C)c1 (stereo not shown) was 2.256%.
Result for CCc1nnc(CN2CCCN(C(=O)c3ccccn3)CC2)o1 was -12.71%.
Result for CC(=O)N(Cc1ncc(C(C)C)o1)C1CCN(Cc2ccno2)C1 (stereo not shown) was 7.417%.